Results are given in words; binding and its absence hold for the method and conditions named. Binding seen in cells or lysates may run through a third protein. These calls come from enrichment with a bait or labelling near it, and not all partners need be listed. Tags and fused reporters may be left off the sequences shown.

The target of this assay is T1, TST-tagged ARGONAUTE 1 (TST–AGO1) (Arabidopsis thaliana) (UniProt O04379).
T1 sequence: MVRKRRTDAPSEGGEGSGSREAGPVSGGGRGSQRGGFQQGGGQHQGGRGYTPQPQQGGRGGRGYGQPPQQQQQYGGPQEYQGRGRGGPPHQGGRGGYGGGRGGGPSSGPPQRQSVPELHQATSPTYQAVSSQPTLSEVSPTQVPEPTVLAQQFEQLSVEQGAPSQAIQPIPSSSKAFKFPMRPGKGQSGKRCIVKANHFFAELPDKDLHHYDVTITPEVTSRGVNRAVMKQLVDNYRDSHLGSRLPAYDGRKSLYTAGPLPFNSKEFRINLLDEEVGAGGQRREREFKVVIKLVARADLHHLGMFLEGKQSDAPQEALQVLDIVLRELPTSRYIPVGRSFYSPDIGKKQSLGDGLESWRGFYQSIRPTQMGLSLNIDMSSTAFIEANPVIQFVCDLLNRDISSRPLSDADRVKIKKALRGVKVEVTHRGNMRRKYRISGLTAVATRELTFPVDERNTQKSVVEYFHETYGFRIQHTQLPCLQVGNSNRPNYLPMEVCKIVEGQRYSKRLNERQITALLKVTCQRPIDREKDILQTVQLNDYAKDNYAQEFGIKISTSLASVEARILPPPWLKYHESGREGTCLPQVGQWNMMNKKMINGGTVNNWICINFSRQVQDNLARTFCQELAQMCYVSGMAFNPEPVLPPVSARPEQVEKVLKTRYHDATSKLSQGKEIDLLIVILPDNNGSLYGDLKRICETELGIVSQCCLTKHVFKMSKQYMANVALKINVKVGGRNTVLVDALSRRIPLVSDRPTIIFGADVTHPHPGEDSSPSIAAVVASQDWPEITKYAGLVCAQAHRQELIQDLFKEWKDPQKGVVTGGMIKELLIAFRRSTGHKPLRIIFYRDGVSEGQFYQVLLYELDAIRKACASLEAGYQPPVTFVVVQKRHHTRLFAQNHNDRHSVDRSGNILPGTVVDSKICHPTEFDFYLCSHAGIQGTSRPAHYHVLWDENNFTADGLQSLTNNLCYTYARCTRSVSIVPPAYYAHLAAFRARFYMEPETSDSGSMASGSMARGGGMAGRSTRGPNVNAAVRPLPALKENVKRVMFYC
Kind of assay: affinity purification with mass spectrometry; TST–AGO1 complexes from seedlings grown under Cu sufficiency (1 uM CuSO4) or Cu deficiency (100 uM BCS), purified on a Strep-Tactin XT spin column in native conditions; LC-MS/MS; proteins present in pAGO1:TST-GFP control purifications discarded.

As to iron superoxide dismutase 1 (FeSOD1), the binding entry is “binds”.

As to peroxidase PRX32, the binding entry is “binds”.

The record behind these values is PMC12596112.
